{"sequences": {"note": "The chains behind the UniProt entries cited, without tags or fusion partners. Where a name states a change or a piece, a line headed by the entry shows the natural chain unless it says otherwise.", "UniProt O60220": "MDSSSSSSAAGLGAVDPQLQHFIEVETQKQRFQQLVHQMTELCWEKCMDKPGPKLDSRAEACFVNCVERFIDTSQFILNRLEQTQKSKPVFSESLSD", "UniProt Q9Y490": "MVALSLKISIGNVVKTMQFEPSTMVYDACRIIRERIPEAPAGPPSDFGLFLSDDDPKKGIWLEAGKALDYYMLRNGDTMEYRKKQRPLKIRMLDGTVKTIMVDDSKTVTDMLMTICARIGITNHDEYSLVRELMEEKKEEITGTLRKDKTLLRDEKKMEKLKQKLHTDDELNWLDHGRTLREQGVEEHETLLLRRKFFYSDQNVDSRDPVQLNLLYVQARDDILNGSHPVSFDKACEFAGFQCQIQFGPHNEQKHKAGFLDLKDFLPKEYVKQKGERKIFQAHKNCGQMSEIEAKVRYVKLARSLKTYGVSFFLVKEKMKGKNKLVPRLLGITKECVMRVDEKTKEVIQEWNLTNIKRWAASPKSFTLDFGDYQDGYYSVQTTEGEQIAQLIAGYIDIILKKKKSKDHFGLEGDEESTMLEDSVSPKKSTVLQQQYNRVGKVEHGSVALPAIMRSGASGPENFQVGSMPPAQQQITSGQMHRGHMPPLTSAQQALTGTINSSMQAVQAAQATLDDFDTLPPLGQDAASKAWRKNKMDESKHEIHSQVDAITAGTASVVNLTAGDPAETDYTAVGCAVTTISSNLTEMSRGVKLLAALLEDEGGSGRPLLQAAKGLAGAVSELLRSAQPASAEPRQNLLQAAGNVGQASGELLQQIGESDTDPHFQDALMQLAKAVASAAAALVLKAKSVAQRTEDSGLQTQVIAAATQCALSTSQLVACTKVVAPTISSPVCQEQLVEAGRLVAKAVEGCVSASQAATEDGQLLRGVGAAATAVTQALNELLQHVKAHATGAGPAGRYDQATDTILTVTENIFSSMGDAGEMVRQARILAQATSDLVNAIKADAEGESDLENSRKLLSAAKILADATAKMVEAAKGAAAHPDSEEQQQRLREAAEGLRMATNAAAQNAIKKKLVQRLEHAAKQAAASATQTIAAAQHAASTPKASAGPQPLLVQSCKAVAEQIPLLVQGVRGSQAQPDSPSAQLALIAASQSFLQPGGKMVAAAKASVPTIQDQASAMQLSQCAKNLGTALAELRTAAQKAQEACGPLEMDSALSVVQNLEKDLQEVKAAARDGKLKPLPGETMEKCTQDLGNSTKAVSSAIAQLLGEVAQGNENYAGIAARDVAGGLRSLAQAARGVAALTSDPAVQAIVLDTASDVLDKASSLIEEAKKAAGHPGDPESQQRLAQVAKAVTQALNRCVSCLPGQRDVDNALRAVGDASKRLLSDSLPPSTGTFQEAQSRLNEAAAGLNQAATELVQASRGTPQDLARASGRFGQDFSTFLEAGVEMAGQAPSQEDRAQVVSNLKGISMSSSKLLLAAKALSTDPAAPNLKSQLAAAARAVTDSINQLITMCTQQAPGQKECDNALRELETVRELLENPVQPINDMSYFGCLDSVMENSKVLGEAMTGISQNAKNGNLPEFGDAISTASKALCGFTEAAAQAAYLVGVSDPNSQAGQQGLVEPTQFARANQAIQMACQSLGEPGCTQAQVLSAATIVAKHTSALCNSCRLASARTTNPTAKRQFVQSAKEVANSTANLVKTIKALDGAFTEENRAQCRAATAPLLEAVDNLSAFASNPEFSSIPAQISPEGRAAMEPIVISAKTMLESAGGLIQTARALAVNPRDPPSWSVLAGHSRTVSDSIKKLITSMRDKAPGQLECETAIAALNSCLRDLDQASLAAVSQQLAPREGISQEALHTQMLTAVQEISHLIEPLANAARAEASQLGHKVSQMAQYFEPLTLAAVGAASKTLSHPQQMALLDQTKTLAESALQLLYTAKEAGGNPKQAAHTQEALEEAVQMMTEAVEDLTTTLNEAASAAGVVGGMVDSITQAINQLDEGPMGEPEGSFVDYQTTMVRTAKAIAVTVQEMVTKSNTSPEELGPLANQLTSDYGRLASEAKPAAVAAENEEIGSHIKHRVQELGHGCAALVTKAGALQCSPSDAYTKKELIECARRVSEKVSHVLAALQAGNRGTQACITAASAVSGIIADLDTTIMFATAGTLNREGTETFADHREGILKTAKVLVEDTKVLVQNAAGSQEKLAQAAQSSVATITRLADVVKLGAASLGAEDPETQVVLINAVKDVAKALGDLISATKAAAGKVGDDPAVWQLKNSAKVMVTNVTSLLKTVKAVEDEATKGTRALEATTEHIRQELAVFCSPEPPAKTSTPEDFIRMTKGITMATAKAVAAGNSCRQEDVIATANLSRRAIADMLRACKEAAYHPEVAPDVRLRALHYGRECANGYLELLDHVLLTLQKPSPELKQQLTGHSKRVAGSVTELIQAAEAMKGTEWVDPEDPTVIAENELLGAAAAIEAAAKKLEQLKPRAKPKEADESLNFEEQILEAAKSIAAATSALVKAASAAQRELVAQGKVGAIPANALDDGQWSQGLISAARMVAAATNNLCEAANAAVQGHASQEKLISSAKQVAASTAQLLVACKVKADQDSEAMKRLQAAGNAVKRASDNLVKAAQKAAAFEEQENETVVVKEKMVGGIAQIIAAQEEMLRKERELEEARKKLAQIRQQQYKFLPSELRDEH", "UniProt Q9UNS1": "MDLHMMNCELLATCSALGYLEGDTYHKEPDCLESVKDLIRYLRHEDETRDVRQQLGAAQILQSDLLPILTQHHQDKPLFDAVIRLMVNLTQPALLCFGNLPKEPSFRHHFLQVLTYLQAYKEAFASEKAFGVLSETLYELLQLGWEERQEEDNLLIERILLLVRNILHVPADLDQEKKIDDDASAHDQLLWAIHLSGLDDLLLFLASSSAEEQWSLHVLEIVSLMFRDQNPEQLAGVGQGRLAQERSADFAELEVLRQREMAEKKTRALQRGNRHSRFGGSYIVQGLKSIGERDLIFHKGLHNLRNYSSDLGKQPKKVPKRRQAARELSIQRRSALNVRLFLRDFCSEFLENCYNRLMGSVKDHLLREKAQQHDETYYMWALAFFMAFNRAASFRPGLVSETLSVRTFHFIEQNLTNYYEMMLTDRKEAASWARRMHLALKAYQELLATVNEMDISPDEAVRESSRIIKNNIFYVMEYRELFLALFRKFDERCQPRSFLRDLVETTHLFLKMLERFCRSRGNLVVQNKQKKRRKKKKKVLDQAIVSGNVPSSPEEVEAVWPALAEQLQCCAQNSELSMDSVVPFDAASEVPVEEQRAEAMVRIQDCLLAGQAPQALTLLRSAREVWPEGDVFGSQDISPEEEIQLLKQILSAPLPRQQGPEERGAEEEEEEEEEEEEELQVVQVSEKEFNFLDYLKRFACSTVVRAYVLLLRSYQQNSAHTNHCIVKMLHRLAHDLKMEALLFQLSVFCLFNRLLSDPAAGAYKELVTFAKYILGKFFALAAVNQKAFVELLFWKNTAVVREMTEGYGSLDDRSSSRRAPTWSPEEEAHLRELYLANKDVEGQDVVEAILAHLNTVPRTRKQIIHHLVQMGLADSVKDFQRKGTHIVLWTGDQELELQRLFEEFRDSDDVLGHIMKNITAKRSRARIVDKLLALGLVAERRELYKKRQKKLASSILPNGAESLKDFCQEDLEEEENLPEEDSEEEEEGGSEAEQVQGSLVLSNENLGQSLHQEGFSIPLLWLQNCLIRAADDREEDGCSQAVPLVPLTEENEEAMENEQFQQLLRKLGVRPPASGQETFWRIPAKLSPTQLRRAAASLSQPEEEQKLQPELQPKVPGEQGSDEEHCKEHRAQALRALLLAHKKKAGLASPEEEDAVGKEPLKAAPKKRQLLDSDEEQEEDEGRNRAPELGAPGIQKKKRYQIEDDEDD", "UniProt P17987, whole entry, looked up": "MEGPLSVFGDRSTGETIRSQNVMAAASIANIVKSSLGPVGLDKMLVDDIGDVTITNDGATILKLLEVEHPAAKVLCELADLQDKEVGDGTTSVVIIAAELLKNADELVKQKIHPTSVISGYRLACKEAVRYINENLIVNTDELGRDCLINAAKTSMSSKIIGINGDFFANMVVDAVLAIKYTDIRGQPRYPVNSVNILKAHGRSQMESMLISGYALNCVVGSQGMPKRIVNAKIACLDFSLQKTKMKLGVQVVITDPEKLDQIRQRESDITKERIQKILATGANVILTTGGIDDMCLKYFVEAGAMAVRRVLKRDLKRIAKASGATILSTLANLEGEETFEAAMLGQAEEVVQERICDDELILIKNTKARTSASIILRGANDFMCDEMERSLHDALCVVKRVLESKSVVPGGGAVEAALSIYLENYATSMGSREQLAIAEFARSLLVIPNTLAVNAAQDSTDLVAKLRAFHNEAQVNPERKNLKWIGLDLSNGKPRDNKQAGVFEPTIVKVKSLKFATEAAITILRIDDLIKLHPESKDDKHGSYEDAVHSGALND", "UniProt Q9NZ01": "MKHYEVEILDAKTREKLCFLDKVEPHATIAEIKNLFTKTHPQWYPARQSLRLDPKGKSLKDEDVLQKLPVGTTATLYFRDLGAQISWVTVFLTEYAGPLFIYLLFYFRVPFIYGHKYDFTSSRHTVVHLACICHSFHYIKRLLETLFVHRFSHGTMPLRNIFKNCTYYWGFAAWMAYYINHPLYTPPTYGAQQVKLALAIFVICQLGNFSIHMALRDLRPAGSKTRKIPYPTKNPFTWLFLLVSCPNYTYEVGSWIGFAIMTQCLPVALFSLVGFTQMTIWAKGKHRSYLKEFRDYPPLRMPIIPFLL", "UniProt Q86W42": "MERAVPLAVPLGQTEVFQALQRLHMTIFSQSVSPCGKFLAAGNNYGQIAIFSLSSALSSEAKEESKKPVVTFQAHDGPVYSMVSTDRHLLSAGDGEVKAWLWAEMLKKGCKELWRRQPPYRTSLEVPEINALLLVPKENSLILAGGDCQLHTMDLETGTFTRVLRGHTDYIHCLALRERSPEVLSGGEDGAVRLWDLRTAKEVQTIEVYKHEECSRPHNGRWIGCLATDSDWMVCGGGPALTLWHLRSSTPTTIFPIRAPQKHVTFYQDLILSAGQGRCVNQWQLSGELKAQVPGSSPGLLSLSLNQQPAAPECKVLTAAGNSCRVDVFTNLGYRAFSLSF", "UniProt P04183": "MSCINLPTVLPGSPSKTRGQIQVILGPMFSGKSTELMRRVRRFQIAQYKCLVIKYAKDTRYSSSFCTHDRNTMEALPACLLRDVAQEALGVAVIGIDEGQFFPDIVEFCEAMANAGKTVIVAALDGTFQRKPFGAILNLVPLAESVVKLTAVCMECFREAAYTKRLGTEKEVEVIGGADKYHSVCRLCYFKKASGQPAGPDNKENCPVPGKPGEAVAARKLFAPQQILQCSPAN", "UniProt P29401": "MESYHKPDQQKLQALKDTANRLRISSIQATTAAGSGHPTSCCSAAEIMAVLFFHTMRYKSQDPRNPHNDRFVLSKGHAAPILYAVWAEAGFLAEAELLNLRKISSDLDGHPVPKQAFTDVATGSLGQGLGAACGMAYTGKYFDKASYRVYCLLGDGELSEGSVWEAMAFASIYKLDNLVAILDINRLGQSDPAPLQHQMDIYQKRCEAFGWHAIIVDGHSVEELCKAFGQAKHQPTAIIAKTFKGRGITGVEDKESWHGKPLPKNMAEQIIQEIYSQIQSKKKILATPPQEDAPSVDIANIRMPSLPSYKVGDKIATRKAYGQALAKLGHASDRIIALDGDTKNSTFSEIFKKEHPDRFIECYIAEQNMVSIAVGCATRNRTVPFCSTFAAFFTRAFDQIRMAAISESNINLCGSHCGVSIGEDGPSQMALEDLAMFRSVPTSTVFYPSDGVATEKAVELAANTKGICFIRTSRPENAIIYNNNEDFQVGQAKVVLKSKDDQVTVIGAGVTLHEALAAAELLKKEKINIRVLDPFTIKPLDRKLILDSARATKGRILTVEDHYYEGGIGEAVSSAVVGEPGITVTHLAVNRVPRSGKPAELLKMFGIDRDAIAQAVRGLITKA", "UniProt P52888, whole entry, looked up": "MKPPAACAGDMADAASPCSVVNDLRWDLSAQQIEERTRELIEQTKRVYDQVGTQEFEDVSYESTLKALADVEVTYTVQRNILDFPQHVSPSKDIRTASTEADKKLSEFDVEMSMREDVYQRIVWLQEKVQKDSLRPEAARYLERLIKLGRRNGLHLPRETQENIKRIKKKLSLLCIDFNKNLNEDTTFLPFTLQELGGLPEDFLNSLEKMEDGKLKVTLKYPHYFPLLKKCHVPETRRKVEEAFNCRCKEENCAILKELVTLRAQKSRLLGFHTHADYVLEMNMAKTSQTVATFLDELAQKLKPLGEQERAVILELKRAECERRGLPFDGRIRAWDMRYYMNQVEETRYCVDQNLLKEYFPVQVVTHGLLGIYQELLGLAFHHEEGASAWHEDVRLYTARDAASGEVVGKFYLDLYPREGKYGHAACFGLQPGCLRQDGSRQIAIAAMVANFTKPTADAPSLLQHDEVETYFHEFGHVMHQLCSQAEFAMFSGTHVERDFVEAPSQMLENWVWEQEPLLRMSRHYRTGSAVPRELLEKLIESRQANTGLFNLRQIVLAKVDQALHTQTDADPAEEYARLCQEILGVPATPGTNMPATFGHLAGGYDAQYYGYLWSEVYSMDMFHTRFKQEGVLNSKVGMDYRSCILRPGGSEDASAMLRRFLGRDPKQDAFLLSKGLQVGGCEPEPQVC"}, "source": "the supplement of paper PMC12067093", "about": "“Discovery and optimisation of a covalent ligand for TRIM25 and its application to targeted protein ubiquitination” (Chemical Science, 2025)", "note": "The list shows a part of the results.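 Further: competitive profiling in live THP-1 cells: cysteine peptides tagged with an iodoacetamide desthiobiotin (IA-DTB) probe, intensity after compound treatment relative to DMSO-treated cells.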", "data": [{"compound": "Cc1cc(ccc1-c1ccccc1)C(=O)N1CCCN(CC1)C(=O)CCl [compound 10]", "assay": "probe-labelled cysteine peptide fold change vs DMSO (competition) (log2 fold change); higher = less target engagement (more negative = stronger competition)", "conditions": "10 µM; THP-1; incubation time: 4 h", "values": [{"target": "TIMM8A_O60220_62_AEACFVNCVER (UniProt O60220)", "probe-labelled cysteine peptide fold change": -0.122}, {"target": "TLN1_Q9Y490_1939_AGALQCSPSDAYTK (UniProt Q9Y490)", "probe-labelled cysteine peptide fold change": -0.263}, {"target": "TELO2_Q9Y4R8_222_ACVHGR (UniProt Q9Y4R8)", "probe-labelled cysteine peptide fold change": -0.0612}, {"target": "TIMELESS_Q9UNS1_1126_VPGEQGSDEEHCK (UniProt Q9UNS1)", "probe-labelled cysteine peptide fold change": -0.446}, {"target": "TCP1_P17987_397_SLHDALCVVK (UniProt P17987)", "probe-labelled cysteine peptide fold change": 0.0472}, {"target": "TECR_Q9NZ01_18_LCFLDK (UniProt Q9NZ01)", "probe-labelled cysteine peptide fold change": -0.134}, {"target": "THBD_P07204_265_CQCPAGAALQADGR (UniProt P07204)", "probe-labelled cysteine peptide fold change": -0.0316}, {"target": "THOC6_Q86W42_324_VLTAAGNSCR (UniProt Q86W42)", "probe-labelled cysteine peptide fold change": -0.0877}, {"target": "TK1_P04183_79_NTMEALPACLLR (UniProt P04183)", "probe-labelled cysteine peptide fold change": 0.13}, {"target": "TKT_P29401_206_RCEAFGWHAIIVDGHSVEELCK (UniProt P29401)", "probe-labelled cysteine peptide fold change": -0.167}, {"target": "TK1_P04183_230_LFAPQQILQCSPAN (UniProt P04183)", "probe-labelled cysteine peptide fold change": -0.0215}, {"target": "TCP1_P17987_236_IACLDFSLQK (UniProt P17987)", "probe-labelled cysteine peptide fold change": 0.107}, {"target": "THOP1_P52888_644_SCILRPGGSEDASAMLR (UniProt P52888)", "probe-labelled cysteine peptide fold change": -0.0261}, {"target": "TGFBR1_P36897_101_TGSVTTTYCCNQDHCNK (UniProt P36897)", "probe-labelled cysteine peptide fold change": -0.187}, {"target": "THOC2_Q8NI27_1031_VFSDIIYTVASCTENEASR (UniProt Q8NI27)", "probe-labelled cysteine peptide fold change": 0.122}, {"target": "TKFC_Q3LXA3_24_KLVNSVAGCADDALAGLVACNPNLQLLQGHR (UniProt Q3LXA3)", "probe-labelled cysteine peptide fold change": -0.0575}, {"target": "TIGAR_Q9NQ88_161_EQFSQGSPSNCLETSLAEIFPLGK (UniProt Q9NQ88)", "probe-labelled cysteine peptide fold change": -0.0701}]}]}
